Results reported in article PMC10956046.
These are yes or no findings as the source states them, for the method shown. In cells and extracts the contact can be indirect. Sequences can lack the tags named with a protein.

Amino acid sequences for entries named in this document (tags omitted).
UniProt O15160: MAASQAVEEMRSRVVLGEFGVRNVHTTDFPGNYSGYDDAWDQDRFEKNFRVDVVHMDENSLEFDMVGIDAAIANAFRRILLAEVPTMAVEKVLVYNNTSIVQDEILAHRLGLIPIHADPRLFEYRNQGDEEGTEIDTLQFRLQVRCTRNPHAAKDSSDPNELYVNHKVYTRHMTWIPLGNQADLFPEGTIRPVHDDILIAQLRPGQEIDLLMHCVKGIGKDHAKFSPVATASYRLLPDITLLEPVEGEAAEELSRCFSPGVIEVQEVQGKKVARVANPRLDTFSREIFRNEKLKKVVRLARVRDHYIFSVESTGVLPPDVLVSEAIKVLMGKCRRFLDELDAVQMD

T1: recombinant GFP-ZNF692 (UniProt Q9BU19)
T1 sequence: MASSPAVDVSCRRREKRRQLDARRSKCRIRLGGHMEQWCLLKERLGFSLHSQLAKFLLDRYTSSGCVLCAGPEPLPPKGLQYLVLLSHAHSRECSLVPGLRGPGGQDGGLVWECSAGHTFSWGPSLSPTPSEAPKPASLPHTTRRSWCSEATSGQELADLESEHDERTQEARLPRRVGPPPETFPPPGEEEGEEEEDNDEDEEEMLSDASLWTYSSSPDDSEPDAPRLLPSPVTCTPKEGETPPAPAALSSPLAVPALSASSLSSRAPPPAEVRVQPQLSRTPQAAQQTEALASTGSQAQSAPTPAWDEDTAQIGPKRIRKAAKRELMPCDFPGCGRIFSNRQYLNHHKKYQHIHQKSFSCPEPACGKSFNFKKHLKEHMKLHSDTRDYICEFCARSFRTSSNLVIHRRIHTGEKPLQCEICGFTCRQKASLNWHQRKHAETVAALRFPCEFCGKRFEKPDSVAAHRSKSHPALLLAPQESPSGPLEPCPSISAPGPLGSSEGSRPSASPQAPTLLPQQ


Molecular target: T1, recombinant GFP-ZNF692
Assay: pull-down; purified recombinant GFP-ZNF692 WT or mutants on GFP-trap beads, incubated with DLD1 nuclear extracts overnight; immunoblot for NPM1, FBL, RPA40; only the target purified

binding | Molecule
no binding | RPA40 (from UniProt O15160 1-346)
no binding | fibrillarin (FBL) (protein, UniProt P22087 1-321) MKPGFSPRGGGFGGRGGFGDRGGRGGRGGFGGGRGRGGGFRGRGRGGGGGGGGGGGGGRGGGGFHSGGNRGRGRGGKRGNQSGKNVMVEPHRHEGVFICRGKEDALVTKNLVPGESVYGEKRVSISEGDDKIEYRAWNPFRSKLAAAILGGVDQIHIKPGAKVLYLGAASGTTVSHVSDIVGPDGLVYAVEFSHRSGRDLINLAKKRTNIIPVIEDARHPHKYRMLIAMVDVIFADVAQPDQTRIVALNAHTFLRNGGHFVISIKANCIDSTASAEAVFASEVKKMQQENMKPQEQLTLEPYERDHAVVVGVYRPPPKVKN
